This assay in a line: qHTS Assay for Lipid Storage Modulators in Drosophila S3 Cells.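 As to cell number change: cells counted by Cell Tracker Red CMTPX staining in the red channel.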 The note with it: BODIPY lipid droplet fluorescence, 18-24 h; for cell number change: measured here: cell count max response, cells fed with added oleic acid. Put shortly: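 Drosophila S3 cells got compounds at several concentrations plus oleic acid (400 uM solution). Laser-scanning cytometry with 488 nm excitation read lipid droplets at 500-530 nm and cells at 575-640 nm. Percent activity was relative to 20 uM Triacsin C.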

Where [1] appears, read: measured here: cell number channel AC50, cells fed with added oleic acid.
Setting [2] is: measured here: lipid fluorescence (Fed channel) AC50, cells fed with added oleic acid.

The source of these data is PubChem BioAssay AID2685 (National Center for Advancing Translational Sciences (NCATS), 2010).

Some of the results follow. Shown are side measurements of this screen, not its main read-out; they come without a call. Most of these compounds were active or inconclusive in the main read-out, so they are no random draw. Potencies come from curve fits of mixed quality, noted in brackets.

For the molecule `CN(C)/C(CN1CCOCC1)=C1\N=C(c2ccccc2)OC1=O`, the cell number change was found to be 32.8%. Besides, under setting [1], the AC50 is 5.8 µM [rising, partial curve, poor fit]. On to `Cc1ccc(N(C)C(=O)C2CCN(S(=O)(=O)c3ccc4c(c3)oc(=O)n4C)CC2)cc1`, for which the cell number change stood at 28.7%. Turning to `CC1CCCCN1C(=O)C1CCCN(S(=O)(=O)c2cccc3nsnc23)C1` (configuration not stated), the cell number change is -11.3%. The AC50 under setting [2] was 2.91 µM [falling, partial curve].

For the molecule `Cc1cc(C)n2nc(CC(=O)NNC(=O)COc3ccccc3)nc2n1`, the cell number change is -26.4%. Moreover, the AC50 under setting [1] is 0.0231 µM [falling, full curve, poor fit].

On to `CC1CCCCN1C(=O)COC(=O)C1CCN(S(=O)(=O)c2ccc(Cl)c(C(F)(F)F)c2)CC1` (configuration not stated), for which the cell number change was 7.15%. With `CC(C)CN(CC(C)C)CC(O)COc1ccc([N+](=O)[O-])cc1` (configuration not stated), the cell number change was -5.81%. In addition, the AC50 under setting [2] is 1.3 µM [falling, partial curve]. On to `O=C(NCCc1ccc(F)cc1)c1ccc(S(=O)(=O)N2CCCC2)cc1`, for which the cell number change worked out at 6.53%. In addition, the AC50 under setting [2] was 0.116 µM [rising, full curve, poor fit]. As for `O=C1c2cccnc2C(=O)N1c1ccccc1-c1ccccc1`, the cell number change is 36.4%. Moreover, the AC50 under setting [1] is 0.013 µM [rising, full curve, poor fit]. Turning to `COc1ccc(C(=O)Nc2ccccc2C(=O)N/N=C/c2ccccn2)cc1OC`, the cell number change was -15.1%. Besides, the AC50 under setting [2] was 16.4 µM [falling, single point]. Turning to `COc1ccc2nc(/C=N/NC(=O)CCNC(=O)OC(C)(C)C)ccc2c1`, the cell number change is -14.1%. Moreover, the AC50 under setting [2] is 32.6 µM [falling, single point]. In the case of `Cc1nn(CC(=O)NCCCN2CCCCC2C)c(=O)c2cccn12` (configuration not stated), the cell number change turned out to be 0.597%. `CCCN(CCC)S(=O)(=O)c1ccc(C(=O)OCCN2C(=O)c3cccc4c(N5CCOCC5)ccc(c34)C2=O)cc1`: the cell number change amounted to 10.1%. The AC50 under setting [1] was 7.31 µM [rising, single point]. In the case of `O=C(Nc1ccccc1Cl)N1CCN(c2ccc3nncn3n2)CC1`, the cell number change was determined as 18.2%. Also, under setting [2], the AC50 is 0.461 µM [falling, full curve]. Turning to `Cc1c(CCO)c(=O)[nH]n1S(=O)(=O)c1ccccc1`, the cell number change is -41.5%. In addition, the AC50 under setting [1] was 0.00517 µM [falling, full curve, poor fit]. For `CC1CCCCC1NC(=O)CCS(=O)(=O)c1cc2c(cc1Cl)NC(=O)CO2` (configuration not stated), the cell number change turned out to be 14.3%. Under setting [2], the AC50 was 29.1 µM [rising, single point]. Take `S=C(NCCc1ccccn1)Nc1ccc(Cl)cc1`: the cell number change was -9.79%. Also, the AC50 under setting [2] was 8.2 µM [rising, partial curve]. `Cc1ccc(S(=O)(=O)N2CCCCC2)cc1NC(=O)COC(=O)c1ccc(O)cc1`: the AC50 is, setting by setting: under setting [1], 0.092 µM [falling, full curve, poor fit]; under setting [2], 6.51 µM [rising, single point]. Regarding `CCOC(=O)Cc1csc(NC(=O)c2c(O)c3c(n(CC(C)C)c2=O)CCCC3)n1`, the cell number change is -6.91%. Moreover, the AC50 under setting [2] is 0.116 µM [falling, full curve, poor fit].

On to `Cc1ccc(NS(=O)(=O)c2ccc(C(=O)N3CCC3)cc2)cc1`, for which the cell number change came out at 20.1%.

Turning to `Cc1ccc(-c2nc(CS(=O)(=O)CC(=O)N3CCN(C)CC3)c(C)o2)cc1`, the cell number change is -6.08%. For `O=C(NC1CC1)C1CCN(S(=O)(=O)c2ccc(Cl)cc2)CC1`, the cell number change was -6.67%. Moreover, the AC50 under setting [2] is 1.16 µM [falling, single point]. Take `Cc1ccccc1NC(=O)OCc1cn(-c2ccc(Cl)cc2)nn1`: the cell number change was -46.2%. Moreover, under setting [1], the AC50 was 23.1 µM [falling, partial curve, poor fit]. Consider `COc1nc(-c2ccccc2)ccc1-c1noc(-c2cccnc2)n1`, for which the cell number change is -19.1%. The AC50 under setting [2] was 2.06 µM [falling, partial curve].

For the molecule `O=C(NC(=O)c1ccc(Cl)cc1)Nc1ccc(-c2cnco2)cc1`, the cell number change was 27.9%. For the same molecule, the AC50 under setting [2] is 13 µM [rising, partial curve, poor fit].

`CCc1ccccc1NC(=O)c1ccc2c(c1)CCN2S(C)(=O)=O`: the cell number change worked out at 38.2%. Besides, the AC50 under setting [1] was 29.1 µM [rising, single point]. In the case of `O=C(CC1C(=O)NCCN1C1CCCC1)NCc1cccc(OC(F)(F)F)c1` (configuration not stated), the cell number change is -23.8%. Further, the AC50 under setting [2] is 0.58 µM [rising, single point]. For the molecule `Cc1cccc(NC(=O)CNC(=O)N2CC(=O)Nc3ccccc32)c1C`, the cell number change amounted to 20.8%. In addition, the AC50 under setting [1] is 0.0517 µM [rising, full curve, poor fit]. For the molecule `CC(=O)c1cnc2cc(-c3ccc(Cl)cc3)nn2c1C`, the cell number change stood at 52.9%. In addition, the AC50 under setting [1] is 18.4 µM [rising, single point]. With `Clc1ccc(OCc2cc(-c3ccccc3)no2)cc1Cl`, the cell number change worked out at 72.5%. Moreover, under setting [1], the AC50 is 1.84 µM [rising, full curve]. Also, the AC50 under setting [2] is 10.3 µM [rising, partial curve]. Regarding `COc1cc(/C=C/C(=O)c2ccccc2O)cc(OC)c1OC`, the cell number change is -8.66%. For the same molecule, under setting [1], the AC50 was 6.51 µM [falling, single point]. Also, under setting [2], the AC50 was 32.6 µM [falling, single point]. As for `CCCCCn1c(=S)[nH]c2cc(C(=O)N3CCCC3)ccc2c1=O`, the AC50 under setting [1] is 0.82 µM [falling, full curve, poor fit]. Regarding `CCn1c(SCC(=O)N/N=C/c2ccc(O)c(OC)c2)nc2ccccc21`, the cell number change is 18.6%. In addition, under setting [2], the AC50 was 23.1 µM [rising, single point]. With `COc1cccc(NC(=O)C(C)OC(=O)CCCNC(=O)c2ccc(Cl)cc2)c1` (configuration not stated), the cell number change is 5.5%. The AC50 under setting [2] is 0.058 µM [falling, full curve, poor fit]. `Cc1ccc(CNC(=O)c2cn(C)c(=O)c3c2c2ccccc2n3C)o1`: the cell number change was 13.6%. As for `C=C(C)CC1Nc2ccccc2NC1CC(=C)C` (configuration not stated), the cell number change came out at 4.3%. Besides, the AC50 under setting [2] is 32.6 µM [rising, single point]. Regarding `COc1ccc(C2CCCN2C(=O)Nc2cccc(C(C)=O)c2)cc1OC` (configuration not stated), the AC50 under setting [1] was 6.51 µM [rising, single point]. For `CCCn1nc(Oc2nc(SC)nc(N(C)C)n2)ccc1=O`, the cell number change is -1.71%. For the same molecule, the AC50 under setting [2] was 0.366 µM [falling, partial curve, poor fit]. As to `Cc1cc(C(=O)C(=O)O)c(C)n1-c1ccc(Cl)c(Cl)c1`, the cell number change was -1.54%. In addition, the AC50 under setting [1] was 0.103 µM [falling, full curve, poor fit]. The AC50 under setting [2] was 0.146 µM [falling, full curve, poor fit].

`CCc1cccc(OCC(=O)Nc2ccc(C)c(S(=O)(=O)N3CCCCCC3)c2)c1`: the AC50 under setting [2] was 29.1 µM [falling, single point].

What is called AC50 is the midpoint of the concentration-response curve, whichever way the signal moves.
